Tested on: GABA spontaneous inhibitory postsynaptic currents
Assay: GABA spontaneous inhibitory postsynaptic currents (sIPSCs)
Format: cell-based
Settings: asenapine with added serotonin, separate experiment

For `CN1CC2c3ccccc3Oc3ccc(Cl)cc3C2C1` (stereo not shown) [asenapine], the “spontaneous inhibitory postsynaptic currents of added serotonin” value was “did reduce”.

Source: patent publication US20240299317A1, “Fenfluramine for Treatment of Conditions Associated with Spreading Depolarization” (ZOGENIX INTERNATIONAL LIMITED, priority 2021, published 2024)
